From ChEMBL document CHEMBL4316593 (Eur J Med Chem, 2019)
The source gives many values for each of these; only a part stands here.

Columns and labels:
Format in all cases: cell-based
Details in all cases: U-87MG ATCC
[1] = Inhibition of RTK/PI3K/AKT/mTOR signaling in human U87 cells assessed as up regulation of zinc finger protein 524 gene expression at cytotoxic IC50 measured after 48 hrs relative to control
[2] = Inhibition of RTK/PI3K/AKT/mTOR signaling in human U87 cells assessed as down regulation of OAZ1 gene expression at cytotoxic IC50 measured after 48 hrs relative to control
[3] = Inhibition of RTK/PI3K/AKT/mTOR signaling in human U87 cells assessed as up regulation of TMEM125 gene expression at cytotoxic IC50 measured after 48 hrs relative to control
[4] = Inhibition of RTK/PI3K/AKT/mTOR signaling in human U87 cells assessed as down regulation of MCM4 gene expression at cytotoxic IC50 measured after 48 hrs relative to control
[5] = Inhibition of RTK/PI3K/AKT/mTOR signaling in human U87 cells assessed as up regulation of troponin T1, slow skeletal type gene expression at cytotoxic IC50 measured after 48 hrs relative to control
[6] = Inhibition of RTK/PI3K/AKT/mTOR signaling in human U87 cells assessed as up regulation of OLA1 gene expression at cytotoxic IC50 measured after 48 hrs relative to control
[7] = Inhibition of RTK/PI3K/AKT/mTOR signaling in human U87 cells assessed as down regulation of ABHD12 gene expression at cytotoxic IC50 measured after 48 hrs relative to control
[8] = Inhibition of RTK/PI3K/AKT/mTOR signaling in human U87 cells assessed as up regulation of sorting nexin 25 gene expression at cytotoxic IC50 measured after 48 hrs relative to control
[9] = Inhibition of RTK/PI3K/AKT/mTOR signaling in human U87 cells assessed as down regulation of ZCCHC6 gene expression at cytotoxic IC50 measured after 48 hrs relative to control
[10] = Inhibition of RTK/PI3K/AKT/mTOR signaling in human U87 cells assessed as up regulation of LIPG gene expression at cytotoxic IC50 measured after 48 hrs relative to control
[11] = Inhibition of RTK/PI3K/AKT/mTOR signaling in human U87 cells assessed as down regulation of POLR2J gene expression at cytotoxic IC50 measured after 48 hrs relative to control
[12] = Inhibition of RTK/PI3K/AKT/mTOR signaling in human U87 cells assessed as up regulation of HK2 gene expression at cytotoxic IC50 measured after 48 hrs relative to control
[13] = Inhibition of RTK/PI3K/AKT/mTOR signaling in human U87 cells assessed as up regulation of IGSF9 gene expression at cytotoxic IC50 measured after 48 hrs relative to control
[14] = Inhibition of RTK/PI3K/AKT/mTOR signaling in human U87 cells assessed as down regulation of GDE1 gene expression at cytotoxic IC50 measured after 48 hrs relative to control
[15] = Inhibition of RTK/PI3K/AKT/mTOR signaling in human U87 cells assessed as up regulation of NGFI-A binding protein 2 gene expression at cytotoxic IC50 measured after 48 hrs relative to control
[16] = Inhibition of RTK/PI3K/AKT/mTOR signaling in human U87 cells assessed as up regulation of NACA gene expression at cytotoxic IC50 measured after 48 hrs relative to control
[17] = Inhibition of RTK/PI3K/AKT/mTOR signaling in human U87 cells assessed as down regulation of ATF3 gene expression at cytotoxic IC50 measured after 48 hrs relative to control
[18] = Inhibition of RTK/PI3K/AKT/mTOR signaling in human U87 cells assessed as up regulation of WD repeat domain 60 gene expression at cytotoxic IC50 measured after 48 hrs relative to control
[19] = Inhibition of RTK/PI3K/AKT/mTOR signaling in human U87 cells assessed as down regulation of ZFAND5 gene expression at cytotoxic IC50 measured after 48 hrs relative to control
[20] = Inhibition of RTK/PI3K/AKT/mTOR signaling in human U87 cells assessed as up regulation of glucosidase II alpha subunit gene expression at cytotoxic IC50 measured after 48 hrs relative to control
[21] = Inhibition of RTK/PI3K/AKT/mTOR signaling in human U87 cells assessed as down regulation of YTHDF3 gene expression at cytotoxic IC50 measured after 48 hrs relative to control
[22] = Inhibition of RTK/PI3K/AKT/mTOR signaling in human U87 cells assessed as up regulation of podocalyxin like gene expression at cytotoxic IC50 measured after 48 hrs relative to control
[23] = Inhibition of RTK/PI3K/AKT/mTOR signaling in human U87 cells assessed as down regulation of LRRC8B gene expression at cytotoxic IC50 measured after 48 hrs relative to control
[24] = Inhibition of RTK/PI3K/AKT/mTOR signaling in human U87 cells assessed as down regulation of LZTR1 gene expression at cytotoxic IC50 measured after 48 hrs relative to control
[25] = Inhibition of RTK/PI3K/AKT/mTOR signaling in human U87 cells assessed as up regulation of CLGN gene expression at cytotoxic IC50 measured after 48 hrs relative to control
[26] = Inhibition of RTK/PI3K/AKT/mTOR signaling in human U87 cells assessed as down regulation of PTPRA gene expression at cytotoxic IC50 measured after 48 hrs relative to control
[27] = Inhibition of RTK/PI3K/AKT/mTOR signaling in human U87 cells assessed as down regulation of NRBP1 gene expression at cytotoxic IC50 measured after 48 hrs relative to control
[28] = Inhibition of RTK/PI3K/AKT/mTOR signaling in human U87 cells assessed as up regulation of RPL21 gene expression at cytotoxic IC50 measured after 48 hrs relative to control
[29] = Inhibition of RTK/PI3K/AKT/mTOR signaling in human U87 cells assessed as down regulation of ARL13B gene expression at cytotoxic IC50 measured after 48 hrs relative to control
[30] = Inhibition of RTK/PI3K/AKT/mTOR signaling in human U87 cells assessed as up regulation of LDLR gene expression at cytotoxic IC50 measured after 48 hrs relative to control
[31] = Inhibition of RTK/PI3K/AKT/mTOR signaling in human U87 cells assessed as up regulation of KIAA1671 gene expression at cytotoxic IC50 measured after 48 hrs relative to control
[32] = Inhibition of RTK/PI3K/AKT/mTOR signaling in human U87 cells assessed as up regulation of chromosome 4 open reading frame 3 gene expression at cytotoxic IC50 measured after 48 hrs relative to control

## CC(=O)C(=NNc1ccccc1C#N)C(C)=O
[1]
  log2FC: 1.44
[2]
  log2FC: -0.419
[3]
  log2FC: 2.02
[4]
  log2FC: -1.7
[5]
  log2FC: 1.17
[6]
  log2FC: 0.524
[7]
  log2FC: -0.624
[8]
  log2FC: 0.782
[9]
  log2FC: -1.26
[10]
  log2FC: 1.76
[11]
  log2FC: -0.747
[12]
  log2FC: 2.3
[13]
  log2FC: 1.91
[14]
  log2FC: -0.99
[15]
  log2FC: 1.35
[16]
  log2FC: 0.353
[17]
  log2FC: -1.25
[18]
  log2FC: 1.47
[19]
  log2FC: -0.513
[20]
  log2FC: 0.956
[21]
  log2FC: -0.778
[22]
  log2FC: 0.779
[23]
  log2FC: -0.743
[24]
  log2FC: -0.655
[25]
  log2FC: 1.61
[26]
  log2FC: -0.47
[27]
  log2FC: -1.14
[28]
  log2FC: 0.402
[29]
  log2FC: -0.951
[30]
  log2FC: 0.417
[31]
  log2FC: 0.763
[32]
  log2FC: 1.53
